Laboratory results taken from PubChem BioAssay AID248 (DTP/NCI, 2004).
The list is a part of this screen's results and no random one: it is rich in T/C values a quarter to a half above the control, in often repeated tests (any T/C) and in doses without a T/C. Further doses and runs are listed elsewhere. T/C is the treated group as % of the vehicle group. Some entries give survivors of the animals treated and no T/C: the source holds a T/C of zero for them, seemingly a mark for toxic or unscored doses. Some doses without a T/C left all or most animals alive at the check, yet need not have been tolerated: survival well below the control is almost never listed, so the zero probably covers shortened survival too. Counts of survivors are from the toxicity check (mostly the fifth day) where no day follows; animals may have died later. Schedule codes are those of the source, read here as Q, the interval in days (D) or hours (H), X, the number of doses. Some entries were tested several times; the results are listed from low to high. Some schedules carry Z or #; the key to these is not given. Where survival is the endpoint, the PubChem record calls one and a half times the control and up active, and a quarter to a half above the control has no call in these data; cut-offs in other NCI protocols can differ. Some T/C values carry the count of animals alive at the toxicity check (mostly the fifth day); without a count, all were alive then.

Test system: L1210 leukemia ip in BDF1 mice, survival T/C
Assay: NCI In Vivo Anticancer Drug Screen. Data for tumor model L1210 Leukemia (intraperitoneal) in B6D2F1 (BDF1) mice
Details: T/C endpoint: mean survival time, higher T/C = longer survival
[1] = dose: 50.0 mg/kg/injection, schedule: Q01DX009 (ip), vehicle: saline with Tween-80
[2] = dose: 50.0 mg/kg/injection, schedule: Q04DX003 (ip), vehicle: saline
[3] = dose: 100.0 mg/kg/injection, schedule: Q04DX003 (ip), vehicle: saline
[4] = dose: 200.0 mg/kg/injection, schedule: Q01DX009 (ip), vehicle: saline with Tween-80
[5] = dose: 400.0 mg/kg/injection, schedule: Q01DX009 (ip), vehicle: Klucel (hydroxypropylcellulose) (HPC)
[6] = dose: 200.0 mg/kg/injection, schedule: Q04DX003 (ip), vehicle: Klucel (hydroxypropylcellulose) (HPC)
[7] = dose: 400.0 mg/kg/injection, schedule: Q04DX003 (ip), vehicle: Klucel (hydroxypropylcellulose) (HPC)
[8] = dose: 400.0 mg/kg/injection, schedule: Q04DX003 (ip), vehicle: saline
[9] = dose: 400.0 mg/kg/injection, schedule: Q01DX001 (ip), vehicle: carboxymethylcellulose (CMC)

Compound: CCC1(CC)COC(=O)NC1=O
- survivor count [1]: 0 of 6
- survivor count [2]: 0 of 4
- survivor count (dose: 100.0 mg/kg/injection, schedule: Q01DX009 (ip), vehicle: saline with Tween-80): 0 of 6
- survivor count [3]: 0 of 4
- survivor count [4]: 0 of 6
- survivor count (dose: 400.0 mg/kg/injection, schedule: Q01DX009 (ip), vehicle: saline with Tween-80): 0 of 6

Compound: Cc1cc(C(C)C)cc(C(C)C)c1
- survivor count [5]: 6 of 6

Compound: O=C(CS)OCCOC(=O)CS
- survivor count [5]: 5 of 6

Compound: NC(=O)C(=O)NCCCN1CC1
- survivor count [6]: 1 of 6
- survivor count [7]: 0 of 6

Compound: O=C(O)C(Cc1cc(I)c(O)c(I)c1)c1ccccc1 (centres undefined)
- survivor count [7]: 1 of 6

Compound: CC1=C(Cl)CS(=O)(=O)C1
- survivor count (dose: 400.0 mg/kg/injection, schedule: Q01DX001 (ip), vehicle: saline with Tween-80): 0 of 6

Compound: COc1cc2ccc3c(c2cc1OC)C=NCC3
- survivor count (dose: 1.56 mg/kg/injection, schedule: Q01DX009 (ip), vehicle: saline): 3 of 6
- survivor count (dose: 25.0 mg/kg/injection, schedule: Q04DX003 (ip), vehicle: saline): 0 of 6
- survivor count [2]: 0 of 6
- survivor count [3]: 3 of 6
- survivor count (dose: 200.0 mg/kg/injection, schedule: Q04DX003 (ip), vehicle: saline): 0 of 6
- survivor count [8]: 0 of 6

Compound: CCCCCCCCC(=O)N1CC1
- survivor count [7]: 6 of 6

Compound: S=C([S-])N1CCOCC1.S=C([S-])N1CCOCC1.[Zn]
- survivor count (dose: 75.0 mg/kg/injection, schedule: Q04DX003 (ip), vehicle: saline): 2 of 6
- survivor count (dose: 150.0 mg/kg/injection, schedule: Q01DX001 (ip), vehicle: saline): 0 of 6
- survivor count (dose: 300.0 mg/kg/injection, schedule: Q01DX001 (ip), vehicle: saline): 0 of 6

Compound: NNC(=O)c1ccccc1[N+](=O)[O-]
- survivor count [6]: 3 of 6

Compound: O=CNC(Cc1ccccc1)Cc1ccccc1
- survivor count (dose: 40.0 mg/kg/injection, schedule: Q04DX003 (ip), vehicle: Klucel (hydroxypropylcellulose) (HPC)): 3 of 6
- survivor count (dose: 80.0 mg/kg/injection, schedule: Q04DX003 (ip), vehicle: Klucel (hydroxypropylcellulose) (HPC)): 0 of 6

Compound: CO[C@@]12[C@H](COC(N)=O)C3=C(C(=O)C(C)=C(NCCO)C3=O)N1C[C@@H]1N[C@@H]12
- T/C (dose: 1.5 mg/kg/injection, schedule: Q01DX009 (ip), vehicle: saline): 126 % of control
- T/C (dose: 2.7 mg/kg/injection, schedule: Q01DX009 (ip), vehicle: saline): 142 % of control
- T/C (dose: 4.5 mg/kg/injection, schedule: Q01DX009 (ip), vehicle: saline): 131 % of control
- T/C (dose: 6.6 mg/kg/injection, schedule: Q01DX001 (ip), vehicle: acetone): 133 % of control
- T/C (dose: 9.9 mg/kg/injection, schedule: Q01DX001 (ip), vehicle: acetone): 143 % of control
- T/C (dose: 15.0 mg/kg/injection, schedule: Q01DX001 (ip), vehicle: acetone): 148 % of control
- T/C (dose: 15.0 mg/kg/injection, schedule: Q01DX001 (ip), vehicle: saline): 125 % of control
- T/C (dose: 22.0 mg/kg/injection, schedule: Q01DX001 (ip), vehicle: acetone): 143 % of control
- survivor count (dose: 50.0 mg/kg/injection, schedule: Q01DX001 (ip), vehicle: acetone): 6 of 6
- survivor count (dose: 75.0 mg/kg/injection, schedule: Q01DX001 (ip), vehicle: acetone): 1 of 6

Compound: Nc1csnn1
- survivor count [9]: 4 of 4

Compound: CCOC(=O)/C=C1\NC(=O)N(CCCN2C(=O)N/C(=C\C(=O)OCC)C2=O)C1=O
- survivor count [1]: 3 of 3
- survivor count [4]: 3 of 3

Compound: NC(=O)c1c2n(c3ncnc(N)c13)C1OC(CO)C(O)C1S2 (centres undefined)
- survivor count (dose: 100.0 mg/kg/injection, schedule: Q01DX009 (ip), vehicle: water): 5 of 5
- survivor count (dose: 200.0 mg/kg/injection, schedule: Q01DX009 (ip), vehicle: water): 5 of 5
- survivor count (dose: 400.0 mg/kg/injection, schedule: Q01DX009 (ip), vehicle: water): 4 of 5

Compound: CSc1ncnc2nc[nH]c12
- survivor count (dose: 25.0 mg/kg/injection, schedule: Q01DX010 (ip), vehicle: saline): 6 of 6
- survivor count (dose: 50.0 mg/kg/injection, schedule: Q01DX010 (ip), vehicle: saline): 6 of 6
- survivor count (dose: 100.0 mg/kg/injection, schedule: Q01DX Z (oral), vehicle: methylcellulose (MC)): 4 of 7
- T/C (dose: 100.0 mg/kg/injection, schedule: Q#A X Z (ip), vehicle: saline): 126 % of control [5 of 6 alive]
- T/C (dose: 175.0 mg/kg/injection, schedule: Q#A X Z (ip), vehicle: carboxymethylcellulose (CMC)): 125 % of control [4 of 6 alive]
- survivor count (dose: 200.0 mg/kg/injection, schedule: Q01DX010 (ip), vehicle: saline): 6 of 6
- survivor count (dose: 200.0 mg/kg/injection, schedule: Q01DX Z (oral), vehicle: methylcellulose (MC)): 3 of 7
- survivor count (dose: 225.0 mg/kg/injection, schedule: Q#A X Z (ip), vehicle: carboxymethylcellulose (CMC)): 2 of 6
- survivor count (dose: 350.0 mg/kg/injection, schedule: Q01DX Z (ip), vehicle: carboxymethylcellulose (CMC)): 0 of 6
- survivor count [9]: 0 of 10 and 1 of 10
- survivor count (dose: 400.0 mg/kg/injection, schedule: Q01DX Z (oral), vehicle: methylcellulose (MC)): 1 of 7
- survivor count (dose: 450.0 mg/kg/injection, schedule: Q01DX Z (ip), vehicle: carboxymethylcellulose (CMC)): 0 of 6
- T/C (dose: 500.0 mg/kg/injection, schedule: Q01DX001 (ip), vehicle: methylcellulose (MC)): 135 % of control [5 of 6 alive]
- survivor count (dose: 600.0 mg/kg/injection, schedule: Q01DX001 (ip), vehicle: carboxymethylcellulose (CMC)): 0 of 10
- survivor count (dose: 600.0 mg/kg/injection, schedule: Q03DX Z (ip), vehicle: saline): 3 of 6
- survivor count (dose: 800.0 mg/kg/injection, schedule: Q01DX Z (oral), vehicle: methylcellulose (MC)): 0 of 7
- survivor count (dose: 1000.0 mg/kg/injection, schedule: Q01DX001 (ip), vehicle: methylcellulose (MC)): 1 of 6
- survivor count (dose: 1500.0 mg/kg/injection, schedule: Q01DX001 (ip), vehicle: carboxymethylcellulose (CMC)): 3 of 6
- survivor count (dose: 2000.0 mg/kg/injection, schedule: Q01DX001 (ip), vehicle: carboxymethylcellulose (CMC)): 2 of 6
- survivor count (dose: 2500.0 mg/kg/injection, schedule: Q01DX001 (ip), vehicle: carboxymethylcellulose (CMC)): 1 of 6

Compound: ClCc1c(Cl)c(Cl)c(Cl)c(CCl)c1Cl
- survivor count [5]: 1 of 6

Compound: S=C(NCc1ccccc1)C(=S)NCc1ccccc1
- survivor count [7]: 0 of 3

Compound: COC(=O)c1nc(Cl)nc(I)c1Cl
- survivor count (dose: 50.0 mg/kg/injection, schedule: Q01DX001 (ip), vehicle: other): 1 of 6
- survivor count (dose: 100.0 mg/kg/injection, schedule: Q01DX001 (ip), vehicle: other): 0 of 6
- survivor count (dose: 200.0 mg/kg/injection, schedule: Q01DX001 (ip), vehicle: other): 0 of 6
- survivor count (dose: 400.0 mg/kg/injection, schedule: Q01DX001 (ip), vehicle: other): 0 of 6

Compound: CC(C)(C)OC(=O)C1=CNCCC1
- survivor count [8]: 0 of 6

Compound: CN(C)C(=S)Oc1c(Cl)cc(S(=O)(=O)F)cc1Cl
- survivor count (dose: 50.0 mg/kg/injection, schedule: Q04DX002 (ip), vehicle: Klucel (hydroxypropylcellulose) (HPC)): 3 of 3
